Test results as given in doi:10.1101/870899.
These are yes or no findings as the source states them, for the method shown. In cells and extracts the contact can be indirect. Sequences can lack the tags named with a protein.

What was measured:
[1] = biological target: T1, GST-BMP2K CT#2 (851-1161) (human) (UniProt Q9NSY1); assay: pull-down
T1 sequence: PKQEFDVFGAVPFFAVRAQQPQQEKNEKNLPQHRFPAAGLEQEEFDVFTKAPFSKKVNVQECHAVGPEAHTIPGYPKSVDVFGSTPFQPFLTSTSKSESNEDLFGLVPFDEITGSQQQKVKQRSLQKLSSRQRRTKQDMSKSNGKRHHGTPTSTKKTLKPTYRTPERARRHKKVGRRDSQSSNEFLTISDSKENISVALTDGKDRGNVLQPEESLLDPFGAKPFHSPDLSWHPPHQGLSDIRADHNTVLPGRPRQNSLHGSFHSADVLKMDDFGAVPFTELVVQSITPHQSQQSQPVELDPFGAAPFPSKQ

[2] = biological target: T2, GST-BMP2K-CT#1 (561-850) (human) (UniProt Q9NSY1); assay: pull-down
T2 sequence: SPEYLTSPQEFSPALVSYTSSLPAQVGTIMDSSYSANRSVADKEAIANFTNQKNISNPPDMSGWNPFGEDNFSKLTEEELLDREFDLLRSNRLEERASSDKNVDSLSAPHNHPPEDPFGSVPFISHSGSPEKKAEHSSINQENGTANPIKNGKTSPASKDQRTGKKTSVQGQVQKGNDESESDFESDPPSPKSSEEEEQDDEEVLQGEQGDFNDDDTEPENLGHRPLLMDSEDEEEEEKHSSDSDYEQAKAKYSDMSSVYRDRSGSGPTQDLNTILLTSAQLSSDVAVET

binding [1]: no binding
binding [2]: no binding
Substance: FCHO (human (endogenous in HeLa))
